Laboratory results as given in patent US20140037661A1, “Wheat Antigens and Peptides for Diagnosis of Wheat Induced Hypersensitivity” (PHADIA AB, priority 2011, published 2014).
At least one peptide structure holds a part that was inferred or is arguable (an end, a ring closure or a residue). Some entries repeat one wording, which the source may state once for all of them. Where a SMILES comes first, the peptide text is derived from it. Where no end group is shown, it is not given here.

Tested on: serum-IgA from CD patients
Assay: IgA reactivity ELISA to synthetic GG1 peptides
Type: binding, human
Conditions: 5 μg/ml coated, FIG. 16; for IgA reactivity of celiac disease patients' serum: n=8 CD, 2 CD on gluten free diet, 3 healthy controls
Experimental: ELISA plates were coated with 100 ul of 5 μg/ml of the 19 overlapping peptides, rGG1, alpha-gliadin peptide p56-75 and deamidated alpha gliadin peptide p56-75 (Q65E) and probed with serum-IgA from CD patients, CD patients on gluten free diet and healthy controls and detected using mouse anti-human IgA1/A2 and sheep anti-mouse IgG-HRP labelled antibody. Human serum albumin (HSA) was used as control (n=8 CD patients, 2 CD patients on gluten free diet and 3 healthy controls). […] Each of the synthetic GG1 peptides no.

Molecule	IgA reactivity of celiac disease patients' serum	sensitivity of IgA reactivity compared with alpha gliadin P56-75 and deamidated P56-75 (Q65E)
CC[C@H](C)[C@H](N)C(=O)N[C@@H](CCCNC(=N)N)C(=O)N[C@@H](CO)C(=O)N[C@@H](CC(C)C)C(=O)N[C@H](C(=O)N[C@@H](CC(C)C)C(=O)N[C@@H](CCC(N)=O)C(=O)N[C@H](C(=O)N[C@@H](CC(C)C)C(=O)N1CCC[C@H]1C(=O)N[C@@H](CO)C(=O)N[C@@H](CCSC)C(=O)N[C@@H](CS)C(=O)N[C@@H](CC(N)=O)C(=O)N[C@H](C(=O)N[C@@H](Cc1ccc(O)cc1)C(=O)N[C@H](C(=O)N1CCC[C@H]1C(=O)N1CCC[C@H]1C(=O)N[C@@H](CCC(=O)O)C(=O)N[C@@H](CS)C(=O)N[C@@H](CO)C(=O)O)C(C)C)C(C)C)[C@@H](C)O)C(C)C [compound 18] (H-IRSLVLQTLPSMCNVYVPPECS-OH)	specific IgA reactivity	
QQPQQPFPQQPQQPFPQTQQ [peptide 6]		better sensitivity
PFPQTQQPQQPFPQLQQPQQ [peptide 7]		better sensitivity
PQPQQPQQSFPQQQRPFI [peptide 9]	specific IgA reactivity	better sensitivity
QPQQQVPQPQQPQQPFLQPQQPFPQQ [peptide 4]		better sensitivity
